{
  "sequences": {"note": "By UniProt entry, the sequences of proteins in these tests, tags left out.", "UniProt P05067, whole entry, looked up": "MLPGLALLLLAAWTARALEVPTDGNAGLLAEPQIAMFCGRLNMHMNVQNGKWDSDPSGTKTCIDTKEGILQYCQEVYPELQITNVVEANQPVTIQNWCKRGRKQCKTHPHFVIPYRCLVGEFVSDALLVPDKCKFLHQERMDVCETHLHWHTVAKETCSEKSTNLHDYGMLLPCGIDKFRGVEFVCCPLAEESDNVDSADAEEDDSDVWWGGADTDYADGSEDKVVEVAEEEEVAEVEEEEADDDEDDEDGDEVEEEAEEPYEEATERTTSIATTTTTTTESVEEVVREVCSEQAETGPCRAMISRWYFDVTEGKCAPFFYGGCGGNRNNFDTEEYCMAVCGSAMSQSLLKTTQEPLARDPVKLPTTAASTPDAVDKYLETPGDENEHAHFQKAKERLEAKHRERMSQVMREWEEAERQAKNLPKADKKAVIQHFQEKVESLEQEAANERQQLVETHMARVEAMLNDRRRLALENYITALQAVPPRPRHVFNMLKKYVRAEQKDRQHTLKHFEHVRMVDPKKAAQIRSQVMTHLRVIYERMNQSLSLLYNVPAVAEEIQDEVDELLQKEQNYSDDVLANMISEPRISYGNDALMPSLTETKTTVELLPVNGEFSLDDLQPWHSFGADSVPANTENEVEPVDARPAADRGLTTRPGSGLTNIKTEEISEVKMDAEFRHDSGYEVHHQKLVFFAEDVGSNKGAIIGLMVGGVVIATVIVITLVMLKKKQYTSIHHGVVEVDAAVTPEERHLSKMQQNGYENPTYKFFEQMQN"},
  "source": "PubChem BioAssay AID1712",
  "about": "(National Center for Advancing Translational Sciences (NCATS), 2009)",
  "note": "“And” between values parts separate entries of the source, which are not always exact repeats. Equal entries are not always repeated. The inconclusive results got no clear call from the source; some entries with a clear call stand among them for comparison. Potencies beside an inconclusive call are fits to weak or partial responses and may not hold up. The source made the active and inactive calls. Calls come from the whole dose curve; as a rule, active = well fitted curve in the direction sought with a large enough effect; inconclusive = small, poorly fitted or top-dose-only effect, or effect the other way, or another doubt; inactive = no such curve, though single readings can be large or run the other way.",
  "data": [
    {"target": "Amyloid-beta precursor protein (Homo sapiens) (UniProt P05067)", "test": "Assay for Inhibitors of the fibrillization of the Beta-Amyloid Protein Fragment, A-beta 1-42", "conditions": "A-beta 1-42 fibrillization, ThT fluorescence, 4 h; series mostly up to 80 µM", "text": "NIH Molecular Libraries Probe Production Network [MLPCN] NIH Chemical Genomics Center [NCGC] MLPCN Grant: X01 MH083262-01 Assay Provider: Carlo Ballatore, University of Pennsylvania NCGC Assay Overview: The microtubule-associated protein tau is an abundant protein in the axons of neurons that stabilizes microtubules. With its ability to modulate microtubule dynamics, tau contributes directly or indirectly, to key structural and regulatory cellular functions. Particularly important is the influence tau exerts on axonal transport, which allows signaling molecules, trophic factors and other essential cellular constituents to travel along the axons. Under pathological conditions, tau becomes sequestered into insoluble aggregates called neurofibrillary tangles. This phenomenon is believed to have pathological consequences by promoting axonal transport deficits that ultimately lead to synaptic dysfunction and neuronal loss. Beta-amyloid protein undergoes a similar type of aggregation as tau and is implicated in the pathology of Alzheimer's disease. To examine the selectivity of tau fibrillization inhibitors, compounds were tested in an in vitro assay for fibrillization of the beta-amyloid fragment, A-beta 1-42. Crystal, A. S., Giasson, B. I., Crowe, A., Kung, M. P., Zhuang, Z. P., Trojanowski, J. Q., and Lee, V. M. Y. (2003) Journal of Neurochemistry 86, 1359-1368.\nNCGC Assay Protocol Summary: Synthetic A-beta 1-42 aliquots were reconstituted to 2 mg/ml in DMSO and then diluted to 15 uM in 25 mM Tris, pH 7.0 buffer to which test compound was added at 50 uM final concentration, or at several concentrations ranging from 0.16-40 uM. The reaction mixtures were dispensed at 25 ul/well into a 384-well plate and then incubated at 37 C for 4 hrs. Upon completion of the reaction, 25 ul of 25 uM ThT was added to each well followed by ThT fluorescence readings as described above for K18PL.", "values": [
      {"smiles": "Nc1scc2c(C(=O)O)nn(-c3ccccc3)c(=O)c12", "Potency": "inconclusive: 35.5 µM [inhibitor, partial curve, poor fit]"},
      {"smiles": "CCOC(=O)c1nn(-c2ccccc2)c(=O)c2c(N)scc12", "Potency": "inactive"},
      {"smiles": "CCOC(=O)c1nn(-c2ccccc2)c(=O)c2c(NC(=O)c3ccccc3)scc12", "Potency": "inconclusive: 3.16 µM [activator, full curve, poor fit]"},
      {"smiles": "CCOC(=O)c1nn(-c2cccc(C(F)(F)F)c2)c(=O)c2c(N)scc12", "Potency": "inconclusive: 39.8 µM [activator, partial curve]"},
      {"smiles": "CCOC(=O)c1ccc(-n2nc(C(=O)OCC)c3csc(N)c3c2=O)cc1", "Potency": "inactive"},
      {"smiles": "CCOC(=O)c1nn(-c2ccc(OC)cc2)c(=O)c2c(NC(=O)Cc3ccccc3)scc12", "Potency": "inconclusive: 39.8 µM [activator, partial curve]"},
      {"smiles": "CCOC(=O)c1nn(-c2ccc(F)cc2)c(=O)c2c(N)scc12", "Potency": "inconclusive: 12.6 µM [inhibitor, full curve, poor fit]"},
      {"smiles": "CCOC(=O)c1nn(-c2ccc(Cl)cc2)c(=O)c2c(N)scc12", "Potency": "inconclusive: 10 µM [inhibitor, full curve, poor fit]"},
      {"smiles": "CCOC(=O)c1nn(-c2ccccc2)c(=O)c2c(N)sc(C)c12", "Potency": "inconclusive: 17.8 µM [inhibitor, full curve, poor fit]"},
      {"smiles": "Nc1scc2c(C(=O)NCc3ccccc3)nn(-c3ccccc3)c(=O)c12", "Potency": "inconclusive: 7.08 µM [inhibitor, full curve, poor fit]"},
      {"smiles": "COc1ccc(-n2nc(C(=O)O)c3csc(N)c3c2=O)cc1", "Potency": "inactive"},
      {"smiles": "CCOC(=O)c1nn(-c2ccccc2)c(=O)c2c(NC(C)=O)scc12", "Potency": "inconclusive: 44.7 µM [activator, partial curve]"},
      {"smiles": "CCOC(=O)c1nn(-c2ccc(OC)cc2)c(=O)c2c(N)scc12", "Potency": "inconclusive: 7.94 µM [inhibitor, partial curve] and inconclusive: 25.1 µM [inhibitor, full curve]"},
      {"smiles": "Nc1scc2c(C(=O)N3CCOCC3)nn(-c3ccccc3)c(=O)c12", "Potency": "inactive"},
      {"smiles": "Cc1sc(N)c2c(=O)n(-c3ccccc3)ncc12", "Potency": "inconclusive: 28.2 µM [inhibitor, single point]"},
      {"smiles": "CCN(CC)C(=O)c1nn(-c2ccc(OC)cc2)c(=O)c2c(N)scc12", "Potency": "inconclusive: 3.55 µM [inhibitor, full curve, poor fit]"}
    ]}
  ]
}
